In US20120122981A1, “Biomarkers Related to Insulin Resistance and Methods using the Same” (priority 2009, published 2012):

Assay: Global metabolomic profiling of plasma by GC-MS and LC-MS; t-tests and correlation with glucose disposal rate (Rd)
Parameters: species or system human

CC(C)C(=O)C(=O)O [3-methyl-2-oxo-butyric acid, 3-methyl-2-oxo-butanoic acid]
level in progressive insulin resistant states: increase
